Results published in patent publication US20020177231A1.
Positions count from the first letter of the chain named. These are yes or no findings as the source states them, for the method shown. In cells and extracts the contact can be indirect. Some results given as binding are weak or reduced against the parent protein; the word gives no strength. Sequences can lack the tags named with a protein.

Chains of the proteins cited; added tags and fusions are not shown.
UniProt Q14289: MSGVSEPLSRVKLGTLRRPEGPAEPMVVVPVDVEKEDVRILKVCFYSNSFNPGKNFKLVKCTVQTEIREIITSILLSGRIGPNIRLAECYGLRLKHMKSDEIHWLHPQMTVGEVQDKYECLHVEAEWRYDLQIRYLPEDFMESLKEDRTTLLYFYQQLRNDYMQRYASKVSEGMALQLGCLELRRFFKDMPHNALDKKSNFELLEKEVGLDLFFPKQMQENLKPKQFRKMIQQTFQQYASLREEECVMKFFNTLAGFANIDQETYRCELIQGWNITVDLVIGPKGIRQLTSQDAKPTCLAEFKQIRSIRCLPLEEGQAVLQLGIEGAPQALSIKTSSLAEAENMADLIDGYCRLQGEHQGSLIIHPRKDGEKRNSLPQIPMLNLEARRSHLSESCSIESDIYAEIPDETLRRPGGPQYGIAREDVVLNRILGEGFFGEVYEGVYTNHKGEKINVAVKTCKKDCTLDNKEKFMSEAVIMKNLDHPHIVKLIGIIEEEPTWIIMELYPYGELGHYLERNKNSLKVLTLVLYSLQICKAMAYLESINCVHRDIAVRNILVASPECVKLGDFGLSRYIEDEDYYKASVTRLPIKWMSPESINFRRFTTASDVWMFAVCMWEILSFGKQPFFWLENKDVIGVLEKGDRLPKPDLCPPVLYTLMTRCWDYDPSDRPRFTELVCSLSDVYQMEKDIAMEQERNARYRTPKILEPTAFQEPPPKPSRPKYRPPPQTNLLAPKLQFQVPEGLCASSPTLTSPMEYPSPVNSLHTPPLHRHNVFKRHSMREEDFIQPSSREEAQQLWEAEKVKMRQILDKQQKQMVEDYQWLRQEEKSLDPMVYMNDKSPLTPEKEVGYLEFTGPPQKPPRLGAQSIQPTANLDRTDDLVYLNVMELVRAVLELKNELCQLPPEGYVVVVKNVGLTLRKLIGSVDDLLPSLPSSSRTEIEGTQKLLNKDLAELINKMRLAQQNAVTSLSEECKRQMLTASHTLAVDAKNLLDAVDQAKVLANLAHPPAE

Columns and labels:
[1] = molecular target: T1, GST-LD fusion protein (human) (UniProt O60711); test: GST pull-down from JY8-8 lysate, anti-Pyk2 immunoblot
T1 sequence: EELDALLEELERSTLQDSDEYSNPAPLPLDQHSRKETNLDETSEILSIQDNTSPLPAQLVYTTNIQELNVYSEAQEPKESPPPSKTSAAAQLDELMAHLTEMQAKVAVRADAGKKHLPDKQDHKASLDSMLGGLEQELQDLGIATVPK

[2] = molecular target: T2, GST-LD with a mutation in the second LD motif (human) (UniProt O60711); test: as above
T2 sequence: T1 sequence with D40A, E41A, T42A

binding [1]: binds | binding [2]: binds
Substance: PYK2 (from UniProt Q14289 1-1009) (enzyme)
